Consider 2 molecules from article PMC6868378.

Protein sequences, listed by entry. Tags and fused reporters are not part of them. Lines headed by an entry give the natural chain unless they say otherwise; changes in a name come on top. Chains listed by the source or under a name are the forms on record and can include a tag or linker. Residues count along the entry.
NF-κB p50 subunit, endogenous in wild type HEK293T cells (human (endogenous in HEK293T)) (P19838, residues 1-433): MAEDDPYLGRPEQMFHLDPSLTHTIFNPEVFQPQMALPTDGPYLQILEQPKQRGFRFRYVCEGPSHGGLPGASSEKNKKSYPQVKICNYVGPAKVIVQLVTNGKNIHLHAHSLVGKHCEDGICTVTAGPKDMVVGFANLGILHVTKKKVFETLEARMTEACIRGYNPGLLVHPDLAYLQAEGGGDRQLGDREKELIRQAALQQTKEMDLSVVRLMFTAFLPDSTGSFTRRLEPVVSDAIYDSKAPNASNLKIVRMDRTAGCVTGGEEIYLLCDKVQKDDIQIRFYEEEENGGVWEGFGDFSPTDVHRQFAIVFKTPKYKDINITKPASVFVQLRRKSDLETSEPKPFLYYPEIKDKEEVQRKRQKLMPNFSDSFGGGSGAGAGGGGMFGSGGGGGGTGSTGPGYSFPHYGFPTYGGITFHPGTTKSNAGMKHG
NF-κB p50 S80A, from NFKB1^S80A knock-in HEK293T cells (human (endogenous in HEK293T)) (P19838, form named): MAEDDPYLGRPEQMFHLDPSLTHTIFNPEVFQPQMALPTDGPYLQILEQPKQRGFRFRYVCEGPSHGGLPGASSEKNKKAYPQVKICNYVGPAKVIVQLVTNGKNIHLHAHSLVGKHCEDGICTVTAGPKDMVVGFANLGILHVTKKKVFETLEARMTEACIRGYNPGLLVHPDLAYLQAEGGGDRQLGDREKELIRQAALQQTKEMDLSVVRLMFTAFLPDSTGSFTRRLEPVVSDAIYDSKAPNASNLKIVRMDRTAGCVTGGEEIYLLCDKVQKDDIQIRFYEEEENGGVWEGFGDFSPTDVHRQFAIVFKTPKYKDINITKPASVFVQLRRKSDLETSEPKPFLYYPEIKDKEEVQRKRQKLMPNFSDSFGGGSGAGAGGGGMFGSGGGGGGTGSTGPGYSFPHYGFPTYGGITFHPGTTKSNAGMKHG
UniProt P25799, residues 1-431: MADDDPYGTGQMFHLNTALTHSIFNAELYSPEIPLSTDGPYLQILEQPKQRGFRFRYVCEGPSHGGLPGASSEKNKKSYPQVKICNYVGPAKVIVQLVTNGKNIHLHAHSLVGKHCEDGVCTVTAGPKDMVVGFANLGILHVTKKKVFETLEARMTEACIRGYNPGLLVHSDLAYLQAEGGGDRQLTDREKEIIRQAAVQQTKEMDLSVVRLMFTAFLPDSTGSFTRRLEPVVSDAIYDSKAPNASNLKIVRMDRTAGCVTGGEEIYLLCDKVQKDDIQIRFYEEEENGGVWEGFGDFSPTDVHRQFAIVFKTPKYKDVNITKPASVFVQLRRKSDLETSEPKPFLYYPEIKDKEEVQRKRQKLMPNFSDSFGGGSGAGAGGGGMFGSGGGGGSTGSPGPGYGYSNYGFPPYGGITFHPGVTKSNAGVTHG
UniProt Q04206: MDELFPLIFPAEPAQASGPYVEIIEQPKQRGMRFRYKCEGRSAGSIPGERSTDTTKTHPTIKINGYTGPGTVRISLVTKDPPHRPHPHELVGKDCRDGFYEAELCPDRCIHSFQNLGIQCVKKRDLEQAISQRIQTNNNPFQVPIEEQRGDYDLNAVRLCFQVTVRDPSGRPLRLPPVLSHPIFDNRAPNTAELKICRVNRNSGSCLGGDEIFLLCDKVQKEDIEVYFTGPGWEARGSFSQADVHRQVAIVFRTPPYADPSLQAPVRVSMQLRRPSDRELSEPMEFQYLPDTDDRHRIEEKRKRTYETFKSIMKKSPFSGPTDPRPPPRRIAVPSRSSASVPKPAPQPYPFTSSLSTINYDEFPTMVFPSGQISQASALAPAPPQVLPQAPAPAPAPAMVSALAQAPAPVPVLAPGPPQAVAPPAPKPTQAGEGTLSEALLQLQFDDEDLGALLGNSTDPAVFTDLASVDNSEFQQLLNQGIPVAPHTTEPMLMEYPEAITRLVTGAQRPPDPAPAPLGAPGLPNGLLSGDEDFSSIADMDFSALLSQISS

Results are given in words; binding and its absence hold for the method and conditions named. Binding seen in cells or lysates may run through a third protein. Some entries that bind do so weakly or less than the wild type. For part of these data: Tags and fused reporters may be left off the sequences shown.

Experiment [1] concerns the target NF-κB p50 S80A, from NFKB1^S80A knock-in HEK293T cells (human (endogenous in HEK293T)) (UniProt P19838). As to the kind of experiment: co-IP; WT or NFKB1^S80A HEK293T, untreated or 10 ng/ml TNFα for 30 min; endogenous p50 immunoprecipitated from whole cell lysates (RIPA buffer) with anti-p105/p50 antibody, western blot with anti-p65. For orientation: Immunoblotting shows a protein as a band on a membrane.

Experiment [2] has as its target NF-κB p50 subunit, endogenous in wild type HEK293T cells (human (endogenous in HEK293T)) (UniProt P19838). The experiment is described as above.
For experiment [3], the target named is Myc-p50 (NF-κB p50 subunit, murine cDNA in pEF4A) (mouse) (UniProt P25799). Briefly: co-IP; HEK293T co-transfected with Myc-p50 and FLAG-IKKβ^SSEE or FLAG-IKKβ^K44M; p50 immunoprecipitated from whole cell lysates (RIPA buffer) with anti-Myc antibody overnight at 4°C, protein G-agarose, western blot.

For “NF-κB p65 (RelA), endogenous in HEK293T cells (from UniProt Q04206 1-551)”, the binding entry in experiment [1] and in experiment [2] was “binds” in each case.

B1: FLAG-IKKβ^K44M (kinase dead IKKβ) (enzyme, UniProt O14920 1-756)
chain: MSWSPSLTTQTCGAWEMKERLGTGGFGNVIRWHNQETGEQIAIMQCRQELSPRNRERWCLEIQIMRRLTHPNVVAARDVPEGMQNLAPNDLPLLAMEYCQGGDLRKYLNQFENCCGLREGAILTLLSDIASALRYLHENRIIHRDLKPENIVLQQGEQRLIHKIIDLGYAKELDQGSLCTSFVGTLQYLAPELLEQQKYTVTVDYWSFGTLAFECITGFRPFLPNWQPVQWHSKVRQKSEVDIVVSEDLNGTVKFSSSLPYPNNLNSVLAERLEKWLQLMLMWHPRQRGTDPTYGPNGCFKALDDILNLKLVHILNMVTGTIHTYPVTEDESLQSLKARIQQDTGIPEEDQELLQEAGLALIPDKPATQCISDGKLNEGHTLDMDLVFLFDNSKITYETQISPRPQPESVSCILQEPKRNLAFFQLRKVWGQVWHSIQTLKEDCNRLQQGQRAAMMNLLRNNSCLSKMKNSMASMSQQLKAKLDFFKTSIQIDLEKYSEQTEFGITSDKLLLAWREMEQAVELCGRENEVKLLVERMMALQTDIVDLQRSPMGRKQGGTLDDLEEQARELYRRLREKPRDQRTEGDSQEMVRLLLQAIQSFEKKVRVIYTQLSKTVVCKQKALELLPKVEEVVSLMNEDEKTVVRLQEKRQKELWNLLKIACSKVRGPVSGSPDSMNASRLSQPGQLMSQPSTASNSLPEPAKKSEELVAEAHNLCTLLENAIQDTVREQDQSFTALDWSWLQTEEEEHSCLEQAS
In the case of B1, the binding entry in experiment [3] is given as “no binding”.
